The values below come from PubChem BioAssay AID2685 (National Center for Advancing Translational Sciences (NCATS), 2010).

In general, AC50 refers to the concentration giving half of the maximal activity seen. A high value points to activity only at high concentration.

The nature of this test: qHTS Assay for Lipid Storage Modulators in Drosophila S3 Cells.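 On cell number change: cells counted by Cell Tracker Red CMTPX staining in the red channel.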 To be noted: BODIPY lipid droplet fluorescence, 18-24 h; for cell number change: measured here: cell count max response, cells fed with added oleic acid. The method, boiled down:
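Laser-scanning cytometry quantifies lipid droplet accumulation (500–530 nm total intensity; droplet/cell object ratio) in oleic acid-fed (400 uM added) Drosophila S3 cells treated with a concentration series. 20 uM Triacsin C defined 100% inhibition.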
Background: Quantitative high-throughput screening tests each substance at several concentrations.

The mark [1] stands for this setting: measured here: lipid fluorescence (Fed channel) AC50, cells fed with added oleic acid.
Setting [2] is: measured here: cell number channel AC50, cells fed with added oleic acid.

The other results are listed elsewhere or left out. The main result of the screen is listed elsewhere. These columns were measured beside it and carry no call. Most of these compounds were active or inconclusive in the main read-out, so they are no random draw. Words in brackets tell the shape of the fitted curve; partial curves, single points and poor fits give uncertain potencies.

In the case of `Cc1cccc(N2CCN(C(=O)C3CC(=O)N(C4CCCC4)C3)CC2)c1C` (stereo not given), the cell number change came to 0.758%. For the same molecule, the AC50 under setting [1] is 29.1 µM [falling, single point].

As to `N#CCCN(CCC#N)C(=O)c1ccc(Cl)cc1`, the cell number change was -34.9%. Also, the AC50 under setting [2] was 29.1 µM [falling, single point]. Under setting [1], the AC50 is 0.184 µM [falling, full curve].

Regarding `CCN(CC)S(=O)(=O)c1ccc(C(=O)Oc2ccc3c(c2)OCO3)cc1`, the cell number change is -54.7%. Moreover, the concentration at half-maximal activity (AC50) under setting [2] is 7.31 µM [falling, partial curve]. Also, the AC50 under setting [1] is 29.1 µM [falling, single point].

On to `Cc1cc(C)nc(Nc2n[nH]c(-c3ccc(C(C)(C)C)cc3)n2)n1`, for which the cell number change came out at 23.7%.

Turning to `N/C(=N\OC(=O)Cc1ccc(-c2ccccc2)cc1)c1cccnc1`, under setting [2], the AC50 was 0.291 µM [falling, partial curve, poor fit].

Take `O=C(O)c1ccc(-c2nc(-c3cccc(C(F)(F)F)c3)cs2)cc1`: the cell number change is -4.3%. Moreover, under setting [2], the AC50 is 6.51 µM [rising, single point].

In the case of `CC(C)c1ccccc1NC(=O)COC(=O)c1c2c(nc3ccccc13)CCN(Cc1ccccc1)C2`, the cell number change was -11.8%. The half-maximal activity concentration (AC50) under setting [1] was 29.1 µM [falling, partial curve, poor fit].

For the molecule `CC(C)NC(=O)C(=O)NCCN1CCN(S(=O)(=O)c2ccc(Cl)cc2)CC1`, the cell number change is -25.5%.

For the molecule `CC(=O)c1cccc(NS(=O)(=O)c2ccc(NC(=O)N3CCCCC3)cc2)c1`, the cell number change is -19%. The AC50 under setting [1] was 10 µM [falling, single point].

Take `Cc1cc(C(=O)C[N+]2(C)CCOCC2)c(C)n1-c1ccc(Br)cc1`: the cell number change is -21.9%.

Regarding `CCN(CC)S(=O)(=O)c1ccc2c(c1)c(=O)c(C(=O)NCc1ccco1)cn2C`, the cell number change was found to be 15.6%. The AC50 under setting [2] is 2.31 µM [rising, single point].

With `O=c1[nH]c2ccccc2nc1/C=C/c1ccc(O)cc1`, the cell number change was -56%. Moreover, under setting [2], the AC50 was 20.6 µM [falling, single point]. The AC50 under setting [1] is 16.4 µM [falling, partial curve].

Consider `Cc1ccc(NC(CNS(=O)(=O)c2ccc(Cl)cc2)c2ccccc2)cc1` (stereo not given), for which the cell number change was -35.2%. The half-maximal activity concentration (AC50) under setting [2] was 0.0517 µM [falling, full curve].

On to `Cc1ccc(C)c(NC(=O)CN(C)C(=O)COc2cccc3c2OC(C)(C)C3)c1`, for which the cell number change was -6.59%. Also, under setting [1], the AC50 was 29.1 µM [falling, single point].

`COC(=O)c1ccc(OCC2NCCc3cc(OC)c(OC)cc32)cc1` (stereo not given): the cell number change was -2.89%. The half-maximal activity concentration (AC50) under setting [2] is 4.61 µM [rising, single point].

Turning to `CC1=C(C(=O)Nc2ccccc2F)C(c2ccsc2)C2=C(CC(C)(C)CC2=O)N1` (stereo not given), the cell number change turned out to be 2.38%.

Consider `CCSc1nc2c(c(=O)n1Cc1ccccc1)SC(C)C2` (stereo not given), for which the cell number change stood at 94.1%. For the same molecule, the AC50 under setting [2] is 5.17 µM [rising, partial curve]. Moreover, the half-maximal activity concentration (AC50) under setting [1] was 5.17 µM [rising, full curve].

Take `Cc1ccc(-c2nnn(CC(=O)N(CC(=O)NC3CCCC3)c3ccc(F)c(Cl)c3)n2)o1`: the cell number change is -59.4%. Further, the AC50 under setting [2] is 9.2 µM [falling, partial curve, poor fit]. Moreover, the half-maximal activity concentration (AC50) under setting [1] was 18.4 µM [falling, partial curve].

Turning to `Cc1cccc(N(C(=O)Cn2nnc3ccccc32)C(C(=O)NCc2ccco2)c2ccncc2)c1` (stereo not given), the cell number change was 23.9%. In addition, the AC50 under setting [1] was 0.411 µM [rising, partial curve, poor fit].

Take `CCC(=O)N1c2ccc(S(=O)(=O)N3CCN(c4ccccc4Cl)CC3)cc2CC1C` (stereo not given): the cell number change worked out at 1.33%. Moreover, under setting [1], the AC50 is 29.1 µM [rising, single point].

`Cc1nn(-c2ccccc2)c2sc(C(=O)N3CCCCC3)cc12`: the cell number change is -2.08%.

`COc1cc2oc3ccccc3c2cc1N(CC(=O)N(C)C)S(=O)(=O)c1ccc(C)cc1`: the cell number change turned out to be 10.2%. Also, under setting [1], the concentration at half-maximal activity (AC50) was 29.1 µM [rising, single point].

`CCOC(=O)c1ccc(NC(=O)CC2C(=O)N(c3ccc(F)cc3)C(=O)N2CCCOC)cc1` (stereo not given): the cell number change was -25.2%.

As for `COc1ccc(CN(CC2CCC(C(=O)O)CC2)C(=S)Nc2cccc(C)c2)cc1` (stereo not given), the cell number change was -37.9%. For the same molecule, the concentration at half-maximal activity (AC50) under setting [1] is 0.103 µM [falling, full curve, poor fit].

On to `CC(C)Cn1c(=O)c2sccc2n2c(CCCC(=O)N3CCC(N4CCCCC4)CC3)nnc12`, for which the cell number change is -18.3%. The AC50 under setting [1] was 18.4 µM [falling, single point].

For the molecule `COc1ccccc1COC(=O)Nc1c(C)nn(C)c1Cl`, the cell number change worked out at 21.1%.

Turning to `S=C(NCC1CCCO1)Nc1ccc(Nc2ccccc2)cc1` (stereo not given), the cell number change was -7.39%. Besides, the AC50 under setting [1] is 8.2 µM [falling, partial curve, poor fit].

Consider `COC(=O)c1ccc(/C=N\NC(=O)c2c(C)nc3ccc(Cl)cn23)cc1`, for which the cell number change was 9.82%.

On to `Cc1ccc2[nH]c(=O)c(CN(Cc3cccnc3)C(=O)c3ccncc3)cc2c1`, for which the cell number change is -17.7%. For the same molecule, the concentration at half-maximal activity (AC50) under setting [1] was 7.31 µM [rising, partial curve].

As for `O=C(COn1nnc2ccc(C(F)(F)F)cc21)Nc1c(Cl)cccc1Cl`, the cell number change amounted to 30.9%. Further, under setting [2], the AC50 was 4.61 µM [rising, full curve, poor fit].

With `O=C(Nc1ccccc1)Nc1nc(-c2ccc(F)c(F)c2)cs1`, the cell number change was -1.38%. The concentration at half-maximal activity (AC50) under setting [1] was 6.51 µM [falling, single point].

For the molecule `CCCOc1ccc(C(=O)OCC(=O)c2c(N)n(C)c(=O)n(C)c2=O)cc1OCC`, the cell number change is -30.9%. The half-maximal activity concentration (AC50) under setting [2] is 2.91 µM [falling, full curve]. For the same molecule, the AC50 under setting [1] is 2.59 µM [falling, full curve].

With `O=C(N/C=N/O)C1=NOC(CNc2ncc(C(F)(F)F)cc2Cl)C1` (stereo not given), the cell number change was -9.83%. The concentration at half-maximal activity (AC50) under setting [1] is 0.411 µM [rising, full curve, poor fit].

Consider `Cc1cc(-c2nc(C)c(-c3nnc(SCC(=O)Nc4cc(Cl)cc(Cl)c4)n3C)s2)no1`, for which the cell number change was -20.3%. Under setting [1], the half-maximal activity concentration (AC50) is 25.9 µM [falling, partial curve].

In the case of `CC(=O)Nc1ccc(NC(=O)CN(C)S(=O)(=O)c2ccc3c(c2)CCC(=O)N3)cc1`, the cell number change was found to be 10.6%.

As to `Cc1cc(C)cc(C(=O)Nn2cnnc2)c1`, the cell number change was found to be 18.6%. For the same molecule, the AC50 under setting [1] was 29.1 µM [rising, single point].

Take `CC1CCCC(C)N1C(=O)CSc1nnc(CSc2ncccn2)n1C` (stereo not given): the cell number change is -15.3%. In addition, under setting [1], the half-maximal activity concentration (AC50) was 20.6 µM [falling, single point].

Regarding `Cc1ccc(-n2c(C)cc(C3N=C(N)Nc4nc5ccccc5n43)c2C)c(C)c1` (stereo not given), the cell number change is -91.2%. Also, the AC50 under setting [2] was 29.1 µM [falling, single point]. Moreover, under setting [1], the AC50 was 18.4 µM [falling, single point].

Take `COC(=O)c1c(-c2ccc(C(C)(C)C)cc2)csc1NC(=O)C1C2CCC(O2)C1C(=O)O` (stereo not given): the cell number change is -25.8%. Moreover, the concentration at half-maximal activity (AC50) under setting [1] was 29.1 µM [falling, single point].

Take `COc1ccc(/C=N/Nc2nnc(C)n2N)cc1OC(C)=O`: the cell number change is -52.4%. Besides, the AC50 under setting [2] is 25.9 µM [falling, partial curve, poor fit]. Under setting [1], the AC50 was 8.2 µM [falling, partial curve].

With `c1cc2c(cc1-c1cnc3n1CCC3)OCCO2`, the cell number change was -25.2%.

As to `CCCOc1ccc(/C=N/NC(=O)C2CC2)c(OCCC)c1`, the cell number change came to 17.1%.

Regarding `CCOc1cc(/C=C2/COc3ccccc3C2=O)ccc1OCC(=O)N(C)C`, the cell number change stood at 8.77%.

On to `Nc1cc(N)c(OCC(F)(F)F)cc1OCC(F)(F)F`, for which the cell number change was found to be 39.2%. Moreover, the concentration at half-maximal activity (AC50) under setting [2] is 9.2 µM [rising, partial curve, poor fit]. Further, the half-maximal activity concentration (AC50) under setting [1] is 4.11 µM [rising, single point].

`CCOC(=O)Cc1csc(NC(=O)c2ccc(Cl)s2)n1`: the cell number change was -15.9%.

Take `O=C(Nc1ccccc1C(=O)N1CCCCC1)C1CCCCC1`: the cell number change was 0.708%. Besides, the AC50 under setting [1] was 0.58 µM [falling, full curve, poor fit].

As for `COc1cc(C(=O)Nc2nc3ccccc3s2)ccc1OCc1c(C)noc1C`, the cell number change was found to be 87.1%. Moreover, the AC50 under setting [2] was 13 µM [rising, partial curve]. In addition, under setting [1], the AC50 is 14.6 µM [rising, partial curve].

As for `COc1cccc(C(=O)NC(=S)N2c3ccccc3CC2C)c1OC` (stereo not given), the cell number change is 4.27%.

On to `N#C/C(=C\c1cccnc1)c1ccccc1[N+](=O)[O-]`, for which the cell number change was -0.901%. Besides, the AC50 under setting [1] was 0.58 µM [falling, single point].

Turning to `O=C(NCc1ccccc1)c1ccc(Oc2ccc(C(=O)NCc3ccccc3)cc2)cc1`, the cell number change is -17.8%. Moreover, the concentration at half-maximal activity (AC50) under setting [2] is 0.164 µM [rising, single point].

For `O=C(CCN1C(=O)c2ccccc2C1=O)N1CCC(c2ccccc2)C1` (stereo not given), the cell number change is 6.69%.

With `CC(=O)c1c(C)[nH]c(C(=O)NNC(=O)COc2ccc(Cl)cc2C)c1C`, the half-maximal activity concentration (AC50) under setting [2] is 0.461 µM [falling, single point].

On to `COc1cccc2cccc(/C=N/n3cnnc3)c12`, for which the cell number change is -5.25%. The AC50 under setting [2] was 0.116 µM [rising, full curve, poor fit]. In addition, under setting [1], the concentration at half-maximal activity (AC50) is 0.103 µM [rising, full curve, poor fit].

As for `O=[N+]([O-])c1cnc(Sc2ccncn2)s1`, the cell number change is -55.7%. For the same molecule, the AC50 under setting [2] was 2.59 µM [falling, full curve]. The half-maximal activity concentration (AC50) under setting [1] is 3.66 µM [falling, partial curve].

As for `CC(C)c1ccc(C2c3[nH]c4ccccc4c3C[C@H]3C(=O)N(c4ccccc4C(=O)N4CCC[C@H]4C(=O)O)C(=O)N23)cc1` (stereo not given in full), the cell number change was determined as 1.91%. Besides, the AC50 under setting [1] is 0.13 µM [falling, full curve, poor fit].

In the case of `CCc1cccc(CC)c1NC(=O)Cn1c(-c2ccc(F)cc2)noc1=O`, the cell number change is -16.3%. In addition, the half-maximal activity concentration (AC50) under setting [1] is 18.4 µM [falling, single point].

As for `CC(C)c1ccc(N(C(=O)c2cc3ccccc3oc2=O)C2C=CS(=O)(=O)C2)cc1` (stereo not given), the cell number change is -9.79%. Also, the half-maximal activity concentration (AC50) under setting [1] was 10.3 µM [falling, partial curve, poor fit].

In the case of `COc1ccc(CN(CCC#N)C(=S)NC(=O)c2ccccc2)cc1`, the cell number change is -2.75%. The concentration at half-maximal activity (AC50) under setting [1] was 1.46 µM [rising, partial curve].

With `O=C(Nc1nc(-c2ccc(Cl)cc2)cs1)c1cccnc1`, the cell number change was 13.6%.

Turning to `CN=Cc1cc(-c2ccccc2)sc1O`, the cell number change was -43.9%. Under setting [2], the half-maximal activity concentration (AC50) is 29.1 µM [falling, single point].

Regarding `O=C(COc1ccccc1F)Nc1nnc(-c2ccncc2)s1`, the AC50 under setting [1] was 0.13 µM [rising, full curve, poor fit].
